# Laboratory results: PubChem BioAssay AID504834 (National Center for Advancing Translational Sciences (NCATS), 2011)
# About 22,000 (6.9%) of roughly 320,000 compounds were called active. Inconclusive means that the source gave no clear call. Such entries were picked first, then a sample of the others. Calls follow the shape of the dose curve; as a rule, active = well fitted inhibition curve with a large enough effect; inconclusive = small, poorly fitted or top-dose-only effect, or another doubt; inactive = no such curve, though single readings can be large or run the other way. Potencies beside an inconclusive call are fits to weak or partial responses and may not hold up.
# Assay: Primary qHTS for delayed death inhibitors of the malarial parasite plastid, 96 hour incubation
# Conditions: P. falciparum luciferase reporter growth; series mostly up to 28.7 µM; activity change, negative = inhibition: at the top concentration
# Outline: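 Parasite growth measured via integrated firefly luciferase reporter in P. falciparum. Infected erythrocytes at 2% hematocrit, 0.05% parasitemia final were treated 96 hours at 37 C under 5% CO2, and luminescence was read.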
# % is scaled to controls: 0 for no effect and ±100 for the full control effect; potency is read from the fitted curve at half-maximal effect.
Structure (SMILES),"activity change, negative = inhibition",Potency
FC(F)(F)c1cccc(-c2nnc3ccc(C(F)(F)F)cn23)c1,inactive: -17.8%,
Cc1cccn2cc(-c3ccccc3)nc12,,"inconclusive: 11.7 µM [inhibitor, single point]"
Nc1c2c(nc3c1CCCC3)CCCC2 (tested in a mixture with another compound),inactive: 25.3%,
Cc1cccc(C(=O)Nc2ccc(O)c3c(=O)cc(-c4ccccc4Cl)oc23)c1,,"inconclusive: 4.15 µM [inhibitor, partial curve, poor fit]"
CCOC(=O)CNC(=O)C1CCCc2c1[nH]c1ccc(Cl)cc21 (stereo unspecified),inactive: 26.2%,
O=C(CSc1ncnc2c1nnn2Cc1ccc(F)cc1)NC1CCCCC1,,"inconclusive: 0.0329 µM [inhibitor, full curve, poor fit]"
CCc1noc(C)c1C(=O)OCC(=O)NCc1ccccc1OC,inactive: 33.9%,
Cc1ccc(OCc2cc(C(=O)N(C)Cc3cnc4ccccn34)no2)cc1C,,"inconclusive: 11.7 µM [inhibitor, partial curve]"
COc1ccc(Nc2nnc(C)c3ccccc23)cc1,inactive: 2.93%,
Cn1c(/C(C#N)=C(\O)c2cc(Cl)sc2Cl)nc2ccccc21,,"inconclusive: 14.7 µM [inhibitor, single point]"
CC(C)N(CCO)C(=O)CCc1nnc(Cc2cccc(C(F)(F)F)c2)o1,,"inconclusive: 9.28 µM [inhibitor, single point]"
CCOCc1cc(CN2CCC(n3nccc3NC(=O)C3CC3)CC2)ccc1OC,,"inconclusive: 4.15 µM [inhibitor, partial curve, poor fit]"
Cc1cc(-c2cccc(Br)c2)c(C#N)c(N)n1,,"inconclusive: 0.828 µM [inhibitor, partial curve, poor fit]"
COc1ccc(S(=O)(=O)N(CC(=O)Nc2ccc(S(=O)(=O)N3CCOCC3)cc2)Cc2ccc(F)cc2)cc1,,"inconclusive: 9.28 µM [inhibitor, partial curve]"
N=c1n(CCN2CCCCC2)c2ccccc2n1CC(=O)c1cccc([N+](=O)[O-])c1,,"inconclusive: 5.86 µM [inhibitor, single point]"
O=C(CCC(=O)N1CCCCC1)Nc1nnc(C2CCCCC2)s1,,"inconclusive: 10.4 µM [inhibitor, single point]"
COc1ccc(CNC(=O)CN(C(=O)c2snc(C(N)=O)c2N)c2ccc(OC)c(OC)c2)cc1,,"inconclusive: 0.104 µM [inhibitor, full curve, poor fit]"
O=C(c1ccc(S(=O)(=O)N2CCC(c3nc4ccccc4s3)CC2)cc1)N1CCOCC1,,"inconclusive: 0.0026 µM [inhibitor, full curve, poor fit]"
CN(Cc1ccccc1)C(=O)CN(c1ccc(F)cc1)S(=O)(=O)c1ccc2c(c1)OCCO2,,"inconclusive: 11.7 µM [inhibitor, single point]"
COc1ccc(Cl)cc1S(=O)(=O)N1CCN(C(=O)c2cc(OC)c(OC)c(OC)c2)CC1,,active: 11.7 µM
COc1cc2c(cc1OC)CN(C(=O)/C=C/c1cccs1)CC2,,"inconclusive: 14.7 µM [inhibitor, single point]"
O=C(c1cccs1)n1nc(-c2ccc(Cl)cc2)nc1NCc1ccco1,inactive: 356%,

# An excerpt of these results, as tab-separated lines:
Structure (SMILES)	activity change, negative = inhibition	Potency
FC(F)(F)c1cccc(-c2nnc3ccc(C(F)(F)F)cn23)c1	inactive: -17.8%	
O=C(CSc1ncnc2c1nnn2Cc1ccc(F)cc1)NC1CCCCC1		inconclusive: 0.0329 µM [inhibitor, full curve, poor fit]
O=C(CCC(=O)N1CCCCC1)Nc1nnc(C2CCCCC2)s1		inconclusive: 10.4 µM [inhibitor, single point]
COc1ccc(CNC(=O)CN(C(=O)c2snc(C(N)=O)c2N)c2ccc(OC)c(OC)c2)cc1		inconclusive: 0.104 µM [inhibitor, full curve, poor fit]

# (list continues)

Structure (SMILES),"activity change, negative = inhibition",Potency
CCOc1cc(N2CCOCC2)c(OCC)cc1NC(=O)c1c(-c2ccccc2)noc1C,,"inconclusive: 9.28 µM [inhibitor, single point]"
O=C(NCCNc1ccc([N+](=O)[O-])cc1)c1ccccc1Br,,"inconclusive: 0.0828 µM [inhibitor, full curve, poor fit]"
COc1ccc(S(=O)(=O)N2CCN(C(=O)c3cccnc3)CC2)cc1OC,,"inconclusive: 3.29 µM [inhibitor, partial curve, poor fit]"
CCOC(=O)C1CCCN(C(=O)c2cccc(N3C(=O)c4ccccc4C3=O)c2)C1 (stereo unspecified),inactive: -12.1%,
O=C(CC(=O)NC1CCCCC1)N/N=C/c1ccccc1[N+](=O)[O-],,"inconclusive: 1.17 µM [inhibitor, partial curve, poor fit]"
CCOC(=O)c1[nH]c2c(c1-c1ccccc1)C(=O)CC(c1ccccc1)C2 (stereo unspecified),,"inconclusive: 18.5 µM [inhibitor, single point]"
CC(C)c1ccccc1N=C1SCCN1C1CCS(=O)(=O)C1 (stereo unspecified),,"inconclusive: 18.5 µM [inhibitor, single point]"
COc1ccccc1-n1c(-c2ccc(F)cc2)coc1=O,,"inconclusive: 10.4 µM [inhibitor, single point]"
CC(=O)NC(Cc1ccc(C(C)C)cc1)C(=O)NC1CCN(C(=O)c2cccc(C)c2)CC1 (stereo unspecified),,"inconclusive: 13.1 µM [inhibitor, partial curve]"
COc1cccc(OCC(O)CNC(C)c2ccccc2)c1 (stereo unspecified),,"inconclusive: 11.7 µM [inhibitor, single point]"
O=C(NCCOc1ccccc1)C1CCC(=O)N(CCN2CCOCC2)C1 (stereo unspecified),,"inconclusive: 18.5 µM [inhibitor, single point]"
Cc1ccc(-c2nc(-c3cccnc3)no2)cc1,inactive: 5.67%,
O=C(CN1C2CCCC1CC(NC(=O)c1ccccc1)C2)NC1CC1 (stereo unspecified),,"inconclusive: 18.5 µM [inhibitor, single point]"
O=S(=O)(Nc1ccc(O)c(CN2CCCCC2)c1)c1ccccc1,,active: 0.586 µM
COC(=O)C1=C(N)Oc2cc(C)n(CC3CCCO3)c(=O)c2C1c1ccc(Cl)cc1 (stereo unspecified),,"inconclusive: 1.17 µM [inhibitor, single point]"
CCCOC(=O)c1ccc(Oc2cn[nH]c2-c2ccc(O)cc2O)cc1,,active: 13.1 µM
CCOC(=O)c1nn(-c2ccccc2)c2nnc(Cc3ccccc3)c(=O)n12,,"inconclusive: 0.147 µM [inhibitor, full curve, poor fit]"
O=C(NC1CC1)c1ccc2c(c1)C1C3CCC(C3)C1C(c1ccccc1)N2 (stereo unspecified),,active: 7.38 µM
Cc1ccc(NS(=O)(=O)c2ccc(OCC(=O)N3CCOCC3)cc2)cc1,inactive: -28.1%,
Cc1cccc(NC(=O)c2nc[nH]c2C(=O)N[C@@H](CC(C)C)C(=O)OCc2ccccc2)c1,,"inconclusive: 13.1 µM [inhibitor, single point]"
CC(C)(C)NC(=O)C1c2ccccc2Oc2ccccc21,,"inconclusive: 18.5 µM [inhibitor, single point]"
COc1ccc(C(=O)C[n+]2ccc(C)cc2)cc1,,"inconclusive: 4.65 µM [inhibitor, partial curve]"

Structure (SMILES),"activity change, negative = inhibition",Potency
CCN(CC)CCn1c2c(c(SCC(=O)Nc3ccc(C(C)C)cc3)nc1=O)CCCC2,,"inconclusive: 4.15 µM [inhibitor, single point]"
COc1ccc(C(=O)Nc2nnc(S(=O)(=O)Cc3ccc(F)cc3)s2)cc1,,"inconclusive: 0.828 µM [inhibitor, partial curve, poor fit]"
O=C(Cn1nc(-c2ccccc2)ccc1=O)NCC1COCCO1 (stereo unspecified),,"inconclusive: 10.4 µM [inhibitor, single point]"
CN1CCN(C(=O)c2ccc(CNS(=O)(=O)c3cccc(Cl)c3)cc2)CC1,,"inconclusive: 18.5 µM [inhibitor, single point]"
CCN(CC)C(=O)CSc1nnc(-c2cc(-c3ccc(Cl)cc3)nc3ccccc23)o1,inactive: 57.9%,
CC(=O)c1ccc(NC(=O)NC2CCCCCCC2)cc1,,"inconclusive: 18.5 µM [inhibitor, single point]"
CC(CN1CCOCC1)OC(=O)c1ccc(C(C)(C)C)cc1 (stereo unspecified),,"inconclusive: 0.0117 µM [inhibitor, partial curve, poor fit]"
O=C(c1cc2cc(C(F)(F)F)ccc2s1)N1CCOCC1,inactive: 32.9%,
CC#CC(=O)N1CCC(C(=O)Nc2ccc(Oc3ccccc3)nc2)CC1,,"inconclusive: 0.0026 µM [inhibitor, full curve, poor fit]"
Cc1ccc2nc3c(cc2c1)CN(Cc1ccco1)C(=NCC1CCCO1)S3 (stereo unspecified),,"inconclusive: 0.522 µM [inhibitor, full curve, poor fit]"
COc1ccc2oc(=O)c(C(=O)OCc3ccccc3)cc2c1,inactive: -0.493%,
CCCCN(C(=O)c1ccc(NC2CC2)c([N+](=O)[O-])c1)c1c(N)n(CC(C)C)c(=O)[nH]c1=O,,"inconclusive: 11.7 µM [inhibitor, single point]"
O=C(Nc1nc(-c2ccc(S(=O)(=O)N3CCCC3)cc2)cs1)C1COc2ccccc2O1 (stereo unspecified),inactive: -7.08%,
COc1ccc(OC)c(-n2c(SCC(=O)N3CCc4ccccc43)nc3c(c2=O)SCC3)c1,,active: 2.33 µM
CCc1ccc2c(c1)c1nnc(NN)nc1n2C,,"inconclusive: 5.86 µM [inhibitor, partial curve]"
CC(C)NS(=O)(=O)c1ccc(OCC(=O)NCc2ccccc2)cc1,,"inconclusive: 0.0657 µM [inhibitor, full curve, poor fit]"
COCCNC(=O)c1c(N)n(/N=C/c2ccc(F)cc2)c2nc3ccccc3nc12,,"inconclusive: 1.31 µM [inhibitor, partial curve, poor fit]"
COc1ccc(-c2cc(C(=O)N3CCN(S(=O)(=O)c4ccc(C)cc4)CC3)[nH]n2)cc1,inactive: 28.2%,
O=C1c2ccccc2-c2nnc(-c3ccccc3)cc21,,"inconclusive: 8.28 µM [inhibitor, partial curve, poor fit]"
Cc1ccc(S(=O)(=O)NCCCCCC(=O)NC(C)(C)CO)cc1,,"inconclusive: 11.7 µM [inhibitor, single point]"
COC(=O)c1cc2c(-c3ccccc3)cc3ccccn3c-2c1C(=O)OC,,active: 3.7 µM
CCOC(=O)Cn1c(=O)oc2cc(S(=O)(=O)N(C)Cc3ccco3)ccc21,,"inconclusive: 9.28 µM [inhibitor, single point]"
